In paper PMC4954646:
These are yes or no findings as the source states them, for the method shown. In cells and extracts the contact can be indirect. Some results given as binding are weak or reduced against the parent protein; the word gives no strength.

B1: full-length ASPP2 (protein, UniProt Q13625 1-1128)
chain: MMPMFLTVYLSNNEQHFTEVPVTPETICRDVVDLCKEPGESDCHLAEVWCGSERPVADNERMFDVLQRFGSQRNEVRFFLRHERPPGRDIVSGPRSQDPSLKRNGVKVPGEYRRKENGVNSPRMDLTLAELQEMASRQQQQIEAQQQLLATKEQRLKFLKQQDQRQQQQVAEQEKLKRLKEIAENQEAKLKKVRALKGHVEQKRLSNGKLVEEIEQMNNLFQQKQRELVLAVSKVEELTRQLEMLKNGRIDSHHDNQSAVAELDRLYKELQLRNKLNQEQNAKLQQQRECLNKRNSEVAVMDKRVNELRDRLWKKKAALQQKENLPVSSDGNLPQQAASAPSRVAAVGPYIQSSTMPRMPSRPELLVKPALPDGSLVIQASEGPMKIQTLPNMRSGAASQTKGSKIHPVGPDWSPSNADLFPSQGSASVPQSTGNALDQVDDGEVPLREKEKKVRPFSMFDAVDQSNAPPSFGTLRKNQSSEDILRDAQVANKNVAKVPPPVPTKPKQINLPYFGQTNQPPSDIKPDGSSQQLSTVVPSMGTKPKPAGQQPRVLLSPSIPSVGQDQTLSPGSKQESPPAAAVRPFTPQPSKDTLLPPFRKPQTVAASSIYSMYTQQQAPGKNFQQAVQSALTKTHTRGPHFSSVYGKPVIAAAQNQQQHPENIYSNSQGKPGSPEPETEPVSSVQENHENERIPRPLSPTKLLPFLSNPYRNQSDADLEALRKKLSNAPRPLKKRSSITEPEGPNGPNIQKLLYQRTTIAAMETISVPSYPSKSASVTASSESPVEIQNPYLHVEPEKEVVSLVPESLSPEDVGNASTENSDMPAPSPGLDYEPEGVPDNSPNLQNNPEEPNPEAPHVLDVYLEEYPPYPPPPYPSGEPEGPGEDSVSMRPPEITGQVSLPPGKRTNLRKTGSERIAHGMRVKFNPLALLLDSSLEGEFDLVQRIIYEVDDPSLPNDEGITALHNAVCAGHTEIVKFLVQFGVNVNAADSDGWTPLHCAASCNNVQVCKFLVESGAAVFAMTYSDMQTAADKCEEMEEGYTQCSQFLYGVQEKMGIMNKGVIYALWDYEPQNDDELPMKEGDCMTIIHREDEDEIEWWWARLNDKEGYVPRNLLGLYPRIKPRQRSLA
B2: ASPP2(123-1128) (domain or fragment, UniProt Q13625 123-1128)
chain: RMDLTLAELQEMASRQQQQIEAQQQLLATKEQRLKFLKQQDQRQQQQVAEQEKLKRLKEIAENQEAKLKKVRALKGHVEQKRLSNGKLVEEIEQMNNLFQQKQRELVLAVSKVEELTRQLEMLKNGRIDSHHDNQSAVAELDRLYKELQLRNKLNQEQNAKLQQQRECLNKRNSEVAVMDKRVNELRDRLWKKKAALQQKENLPVSSDGNLPQQAASAPSRVAAVGPYIQSSTMPRMPSRPELLVKPALPDGSLVIQASEGPMKIQTLPNMRSGAASQTKGSKIHPVGPDWSPSNADLFPSQGSASVPQSTGNALDQVDDGEVPLREKEKKVRPFSMFDAVDQSNAPPSFGTLRKNQSSEDILRDAQVANKNVAKVPPPVPTKPKQINLPYFGQTNQPPSDIKPDGSSQQLSTVVPSMGTKPKPAGQQPRVLLSPSIPSVGQDQTLSPGSKQESPPAAAVRPFTPQPSKDTLLPPFRKPQTVAASSIYSMYTQQQAPGKNFQQAVQSALTKTHTRGPHFSSVYGKPVIAAAQNQQQHPENIYSNSQGKPGSPEPETEPVSSVQENHENERIPRPLSPTKLLPFLSNPYRNQSDADLEALRKKLSNAPRPLKKRSSITEPEGPNGPNIQKLLYQRTTIAAMETISVPSYPSKSASVTASSESPVEIQNPYLHVEPEKEVVSLVPESLSPEDVGNASTENSDMPAPSPGLDYEPEGVPDNSPNLQNNPEEPNPEAPHVLDVYLEEYPPYPPPPYPSGEPEGPGEDSVSMRPPEITGQVSLPPGKRTNLRKTGSERIAHGMRVKFNPLALLLDSSLEGEFDLVQRIIYEVDDPSLPNDEGITALHNAVCAGHTEIVKFLVQFGVNVNAADSDGWTPLHCAASCNNVQVCKFLVESGAAVFAMTYSDMQTAADKCEEMEEGYTQCSQFLYGVQEKMGIMNKGVIYALWDYEPQNDDELPMKEGDCMTIIHREDEDEIEWWWARLNDKEGYVPRNLLGLYPRIKPRQRSLA
B3: ASPP2(1-360) (domain or fragment, UniProt Q13625 1-360)
chain: MMPMFLTVYLSNNEQHFTEVPVTPETICRDVVDLCKEPGESDCHLAEVWCGSERPVADNERMFDVLQRFGSQRNEVRFFLRHERPPGRDIVSGPRSQDPSLKRNGVKVPGEYRRKENGVNSPRMDLTLAELQEMASRQQQQIEAQQQLLATKEQRLKFLKQQDQRQQQQVAEQEKLKRLKEIAENQEAKLKKVRALKGHVEQKRLSNGKLVEEIEQMNNLFQQKQRELVLAVSKVEELTRQLEMLKNGRIDSHHDNQSAVAELDRLYKELQLRNKLNQEQNAKLQQQRECLNKRNSEVAVMDKRVNELRDRLWKKKAALQQKENLPVSSDGNLPQQAASAPSRVAAVGPYIQSSTMPRMP

target: mGFP-H-rasG12V (UniProt P01112); test: co-IP; GFP pull-down: HEK cells cotransfected with mGFP-H-rasG12V and an ASPP2 construct (1:3), treated with 0.8 mM cross-linker dithiobis(succinimidyl-propionate) for 30 min before lysis (1% Triton, 150 mM NaCl); lysate on GFP beads (Chromotek) 2 h at 4°C; blot with anti-ASPP2 and anti-GFP

binding, binds:
B1
B2
B3
